Out of some 330,000 compounds screened, about 7,700 (2.3%) were called active. Inconclusive results, whose numbers are uncertain, are shown with a selection of clear calls. Calls come from the whole dose curve; as a rule, active = well fitted inhibition curve with a large enough effect; inconclusive = small, poorly fitted or top-dose-only effect, or effect the other way; inactive = flat fitted curve, though single readings scatter. Where the call is inconclusive, the potency comes from a doubtful curve fit. Starred links: 1 amine or outer side, 2 acyl side, 3 side chain; linkers in the order of their positions; H or OH if unused. Non-standard residues stand in square brackets, D forms with d. Residues, ends and D or L forms follow the SMILES beside them. X2 = CCC[C@@H](N[*:1])[C@H](C)C(=O)O[C@H](C(=O)[*:2])[C@@H](C)CC; X1 = CC(N[*:1])C(=O)C(C)(C)C(=O)[*:2]; NMeY = CN[C@@H](Cc1ccc(O)cc1)C(=O)O; NMeL = CN[C@@H](CC(C)C)C(=O)O; NMeV = CN[C@H](C(=O)O)C(C)C; NMeA = CN[C@@H](C)C(=O)O
Assay: qHTS screen for small molecules that inhibit ELG1-dependent DNA repair in human embryonic kidney (HEK293T) cells expressing luciferase-tagged ELG1; note: nearly all actives have a fitted effect of over 55% in size
Conditions: HEK293T ELG1-luciferase reporter, luminescence, 16 h, DNA damage induced by 5-fluorouridine; activity change, negative = inhibition: at 46.1 µM (top of the series)
Outline: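 5-Fluorouridine DNA damage + compound/DMSO, 2,000 cells/well, 16 h, 37 °C/5% CO2. ONE-Glo, 30 min RT, luminescence. Readout = decrease in reporter signal.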
With `O=C(NCC1(N2CCCCC2)CCCCC1)c1ccc(NS(=O)(=O)c2ccccc2)cc1` the Potency was inconclusive: 25.9 µM [activator, single point]. With `COc1cccc(N(C(=O)C2COc3ccccc3O2)C(C(=O)NC2CCCCC2)c2ccc(O)cc2)c1` (stereo unspecified) the Potency was inconclusive: 32.6 µM [inhibitor, single point]. With `O=[N+]([O-])c1ccc(NC(=S)NCCc2ccc(F)cc2)cc1` the Potency was inconclusive: 16.4 µM [activator, partial curve]. In the case of `O=C(CN(c1ccccc1F)S(=O)(=O)c1ccccc1)NC1CCCCCC1`, the “activity change, negative = inhibition” value is reported as inactive: -4.22%. For `COc1cc(/C=N\NC(=O)OC(C)(C)C)ccc1OC(=O)c1ccco1`, the Potency was inconclusive: 25.9 µM [activator, single point]. For `COc1cc(S(=O)(=O)Nc2ccc3nc(C)sc3c2)ccc1NC(C)=O`, the “activity change, negative = inhibition” value was inactive: -9.36%. With `CCCCOc1ccc(/C=N/NC(=S)Nc2cccc(C)c2C)cc1` the “activity change, negative = inhibition” value was inactive: -8.83%. In the case of `O=C(NCCn1cccn1)C1CCC(=O)N(CCc2ccc(Cl)cc2)C1` (stereo unspecified), the Potency is reported as inconclusive: 32.6 µM [activator, partial curve, poor fit]. With `COc1cc(Br)cc(/C=C/c2ccc3cccc(O)c3n2)c1O` the Potency was active: 7.3 µM. With `Cc1cc(-n2c(SCc3ccccc3F)nc3n[nH]c(C)c3c2=N)ccc1Cl` the “activity change, negative = inhibition” value was inactive: -20.6%. In the case of `COc1cc(C(=O)NCc2nnc(SCC(=O)Nc3nc4ccc(C)cc4s3)o2)cc(OC)c1OC`, the Potency is reported as inconclusive: 6.51 µM [inhibitor, single point]. For `Cc1ccc(C(=O)OCC(=O)N2c3ccccc3NC(=O)C2(C)C)cc1S(=O)(=O)N1CCCCC1`, the Potency was inconclusive: 25.9 µM [inhibitor, partial curve]. With `CCC(CC)c1nn2c(N)c(/C=C3\C(C)=Nc4ccccc43)c(=O)nc2s1` the “activity change, negative = inhibition” value was inactive: 7.87%. For `CC(=O)c1cc(CC(=O)N2CCc3c([nH]c4ccccc34)C2c2ccccn2)cs1` (stereo unspecified), the “activity change, negative = inhibition” value was inactive: -16.2%. With `CN(C)c1nc(-c2ccccc2)cc(C(F)(F)F)c1C#N` the Potency was inconclusive: 16.4 µM [activator, partial curve, poor fit]. In the case of `Clc1ccc(N2CCN(c3cnc4ccccc4n3)CC2)cc1`, the Potency is reported as inconclusive: 6.51 µM [activator, single point]. In the case of `COc1cc(C(=O)Nc2scc(-c3ccc(Br)cc3)c2C(=O)O)cc(OC)c1OC`, the “activity change, negative = inhibition” value is reported as inactive: 1.94%. In the case of `Cc1nc2nc(C)c(CCC(=O)N3CCN(c4ccccn4)CC3)c(C)n2n1`, the “activity change, negative = inhibition” value is reported as inactive: 0.128%. In the case of `CCCCOC(=O)Nc1nnc(-c2ccccc2OC)s1`, the Potency is reported as inconclusive: 23.1 µM [activator, single point]. With `Cc1ccc(NC(=O)c2ccnc(C(C)(C)C)c2)cc1` the Potency was inconclusive: 3.66 µM [activator, single point]. For `O=C(CNC(=O)c1ccccc1)N/N=C/c1ccc([N+](=O)[O-])s1`, the Potency was active: 6.51 µM. For `O=C(NNc1nc(-c2ccccc2)cs1)c1ccccc1`, the Potency was inconclusive: 25.9 µM [activator, single point]. In the case of `COc1cc(OC)cc(C(=O)Nc2cccc(NC(C)=O)c2)c1`, the “activity change, negative = inhibition” value is reported as inactive: -0.587%. In the case of `CCCCCOC(=O)CCN1C(=O)/C(=C2\SC(=S)N(CCC(=O)OCCCCC)C2=O)SC1=S`, the Potency is reported as inconclusive: 6.51 µM [activator, single point]. In the case of `Cc1ccc2c(=O)[nH]c(Cc3ccccc3C(=O)O)nc2c1`, the Potency is reported as inconclusive: 20.6 µM [inhibitor, single point]. In the case of `Cc1ccc2c(C)c(C(=O)Nc3nnc(C)s3)oc2c1`, the Potency is reported as inconclusive: 8.2 µM [activator, partial curve]. For `Cc1cc2cc(CCNS(=O)(=O)c3ccc(F)cc3)c(=O)[nH]c2cc1C`, the “activity change, negative = inhibition” value was inactive: -20.3%. In the case of `O=C1CCN(S(=O)(=O)c2ccc(Cl)cc2)N1`, the Potency is reported as inconclusive: 4.61 µM [inhibitor, single point]. In the case of `CCCC(=O)Nc1ccc2c(c1)nc(CN1CCN(C(=O)OCC)CC1)n2C`, the “activity change, negative = inhibition” value is reported as inactive: -3.44%. With `O=C1CN(C(=O)c2ccco2)C(c2ccccc2)c2cc(Cl)ccc2N1` (stereo unspecified) the Potency was inconclusive: 12.6 µM [inhibitor, partial curve, poor fit]. For `Cc1ccc(NC(=O)c2ccc3c(=O)n4c(nc3c2)CCC4)cc1F`, the Potency was inconclusive: 2.31 µM [activator, full curve]. With `COc1ccc(CCN2C(=O)CS/C2=N\NC(=O)c2cccs2)cc1OC` the “activity change, negative = inhibition” value was inactive: -8.55%. With `Cc1ccccc1NCC(=O)c1ccc(Br)cc1` the “activity change, negative = inhibition” value was inactive: -4.73%. In the case of `CC(C)N(Cc1ccccc1)C(=O)Cn1c(=O)cnc2ccccc21`, the “activity change, negative = inhibition” value is reported as inactive: -2.13%. With `Cc1cc(C)c(CNC(=O)c2cc(C3CC3)nc3c2cnn3C(C)C)c(=O)[nH]1` the “activity change, negative = inhibition” value was inactive: -15.4%. With `O=C(c1ccco1)N1CCN(c2ncnc3c(-c4ccccc4)nsc23)CC1` the Potency was inconclusive: 1.64 µM [activator, partial curve, poor fit]. With `Cc1cc(C)cc(C(=O)OCC(=O)N2CCCC2)c1` the Potency was inconclusive: 20.6 µM [activator, single point]. For `O=C(Nc1cccnc1)C1CC(c2ccccc2O)=NO1` (stereo unspecified), the Potency was inconclusive: 29.1 µM [activator, partial curve, poor fit]. In the case of `O=C(c1ccc(NS(=O)(=O)c2cccs2)cc1)N1CCOCC1`, the “activity change, negative = inhibition” value is reported as inactive: -1.76%. In the case of `COc1cc(OC)cc(C(=O)N[C@H](C(=O)NNC(=O)c2ccc(Br)cc2)C(C)C)c1`, the “activity change, negative = inhibition” value is reported as inactive: -27.5%. With `COc1ccc(C)cc1NC(=O)CSc1nc2ccccc2nc1N1CC(C)OC(C)C1` (stereo unspecified) the Potency was inconclusive: 11.6 µM [inhibitor, partial curve, poor fit]. In the case of `CC(C)(C)OC(=O)[C@H](CCCCN)NC(=O)c1nc[nH]c1C(=O)N[C@@H](CCCCN)C(=O)OC(C)(C)C`, the “activity change, negative = inhibition” value is reported as inactive: 16.6%. With `O=C(NCCC(=O)N1CCN(S(=O)(=O)c2ccccc2F)CC1)Nc1ccccc1` the “activity change, negative = inhibition” value was inactive: -12.5%. With `Cc1c(Cl)cccc1NC(=O)Cn1c(-c2ccc(F)cc2)noc1=O` the “activity change, negative = inhibition” value was inactive: 5.32%. In the case of `O=C(Nc1ccc(Br)cc1)C1CCCN(S(=O)(=O)c2cccnc2)C1` (stereo unspecified), the Potency is reported as inconclusive: 23.1 µM [inhibitor, single point]. For `Cc1ccc2nc(Cc3ccc(N)cc3)[nH]c2c1`, the Potency was inconclusive: 20.6 µM [activator, partial curve]. With `COc1cc(NC(=O)c2cccs2)c(OC)cc1NC(=O)Nc1ccc(F)cc1` the “activity change, negative = inhibition” value was inactive: -22.8%. In the case of `CCC[C@H]1NC(=O)[C@H](C)N(C)C(=O)C(C)(C)C(=O)C(C)NC(=O)[C@H](Cc2ccc(OC)cc2)N(C)C(=O)[C@H](C(C)C)N(C)C(=O)CNC(=O)[C@H](CC(C)C)N(C)C(=O)CNC(=O)[C@H]([C@@H](C)CC)OC(=O)[C@H]1C` (stereo partly specified) (cyclo(G[NMeL]G[NMeV][NMeY](Me)[X1][NMeA][X2])), the Potency is reported as inconclusive: 0.82 µM [activator, full curve]. In the case of `Cc1ccc(S(=O)(=O)C(C#N)c2nc3ccccc3nc2N2CC(C)OC(C)C2)cc1C` (stereo unspecified), the Potency is reported as inconclusive: 18.4 µM [inhibitor, single point]. For `COc1cc(Br)cc(/C=N/NC(=O)Cc2ccc(C(F)(F)F)cc2[N+](=O)[O-])c1O`, the “activity change, negative = inhibition” value was inactive: -8.08%. For `O=C(N/N=C/c1cn(-c2cccs2)nc1-c1ccccc1)c1ccccc1Cl`, the Potency was inconclusive: 32.6 µM [inhibitor, single point]. With `CCn1cc(C(=O)NCC(C)C)c(=O)c2cc(F)c(N3CCN(C)CC3)cc21` the “activity change, negative = inhibition” value was inactive: 3.78%. In the case of `Cc1ccccc1NC(=S)NCCSc1ccc(Cl)cc1`, the “activity change, negative = inhibition” value is reported as inactive: -18.4%. With `O=C(NC(=S)Nc1ncccn1)c1ccc(F)cc1` the Potency was inconclusive: 16.4 µM [activator, partial curve, poor fit]. With `CCOc1cc(/C=C2\SC(=O)N=C2N)ccc1O` the Potency was inconclusive: 16.4 µM [activator, single point]. With `OC(COc1ccc(F)cc1Cl)CN1CCc2ccccc2C1` (stereo unspecified) the “activity change, negative = inhibition” value was inactive: 1.72%. For `Cc1ccc(NC(=S)N(CCN(C)C)Cc2cc3cc(C)ccc3[nH]c2=O)cc1`, the “activity change, negative = inhibition” value was inactive: -3.4%. For `Cc1cccc(C(=O)Nc2sc3c(c2C(=O)O)CCCC3)c1`, the Potency was inconclusive: 29.1 µM [activator, single point]. With `O=C(OCC(=O)N1CCN(S(=O)(=O)c2ccc(Cl)cc2)CC1)C1CCC1` the “activity change, negative = inhibition” value was inactive: 6.61%. With `CCCc1cc2c(=O)c(-c3ccccn3)c(C)oc2cc1O` the Potency was inconclusive: 23.1 µM [activator, partial curve, poor fit]. For `CCCCC(C(=O)NC1CCCC1)N(C(=O)c1snc(C(N)=O)c1N)c1ccc(OCC)cc1` (stereo unspecified), the Potency was inconclusive: 32.6 µM [inhibitor, single point]. In the case of `O=C1CC(O)(C(F)F)Oc2ccc3ccccc3c21` (stereo unspecified), the Potency is reported as active: 16.4 µM. With `Nc1ccccc1C(=O)NNC(=O)C(=O)/C=C(\O)c1ccccc1` the Potency was inconclusive: 14.6 µM [activator, partial curve]. For `O=C(CSc1nnc(-c2ccncc2)o1)c1cccc([N+](=O)[O-])c1`, the “activity change, negative = inhibition” value was inactive: 8.35%. For `CCOC(=O)C1CCN(CC(=O)Nc2cc(S(=O)(=O)N3CCOCC3)ccc2C)CC1`, the Potency was inconclusive: 23.1 µM [inhibitor, single point]. For `N/C(COc1ccc(Cl)cc1Cl)=N\O`, the Potency was inconclusive: 9.2 µM [activator, partial curve, poor fit]. In the case of `O=C(Nc1ccc(Cl)cc1)c1ccc(Br)cc1F`, the Potency is reported as inconclusive: 10.3 µM [activator, partial curve]. In the case of `CCCOc1ccc(CNC(=O)Cn2c(=O)oc3ccccc32)cc1`, the “activity change, negative = inhibition” value is reported as inactive: 9.15%. In the case of `O=C(NCC(=O)N1CCCC1)c1ccc(Br)cc1`, the Potency is reported as inconclusive: 18.3 µM [activator, single point]. In the case of `O=C(CN1CCCC1c1ccc2c(c1)OCCO2)NC(=O)Nc1ccccc1F` (stereo unspecified), the “activity change, negative = inhibition” value is reported as inactive: -6.15%. For `Cc1cccc(Cn2c(N(C)CCO)nc3c2c(=O)[nH]c(=O)n3C)c1`, the Potency was inconclusive: 18.4 µM [activator, partial curve, poor fit].
% is set by controls: 0 for no effect and ±100 for the full control effect; potency is the fitted concentration of half-maximal effect.
